In paper doi:10.64898/2025.12.05.692577:
Results are given in words; binding and its absence hold for the method and conditions named. In cells and extracts the contact can be indirect.

Protein sequences, listed by entry. Tags and fused reporters are not part of them.
UniProt P23198: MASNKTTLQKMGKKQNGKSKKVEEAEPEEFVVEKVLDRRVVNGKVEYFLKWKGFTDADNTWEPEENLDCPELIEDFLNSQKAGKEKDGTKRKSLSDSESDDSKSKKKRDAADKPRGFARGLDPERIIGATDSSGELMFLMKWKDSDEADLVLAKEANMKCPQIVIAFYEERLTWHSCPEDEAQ
UniProt Q3U9G9: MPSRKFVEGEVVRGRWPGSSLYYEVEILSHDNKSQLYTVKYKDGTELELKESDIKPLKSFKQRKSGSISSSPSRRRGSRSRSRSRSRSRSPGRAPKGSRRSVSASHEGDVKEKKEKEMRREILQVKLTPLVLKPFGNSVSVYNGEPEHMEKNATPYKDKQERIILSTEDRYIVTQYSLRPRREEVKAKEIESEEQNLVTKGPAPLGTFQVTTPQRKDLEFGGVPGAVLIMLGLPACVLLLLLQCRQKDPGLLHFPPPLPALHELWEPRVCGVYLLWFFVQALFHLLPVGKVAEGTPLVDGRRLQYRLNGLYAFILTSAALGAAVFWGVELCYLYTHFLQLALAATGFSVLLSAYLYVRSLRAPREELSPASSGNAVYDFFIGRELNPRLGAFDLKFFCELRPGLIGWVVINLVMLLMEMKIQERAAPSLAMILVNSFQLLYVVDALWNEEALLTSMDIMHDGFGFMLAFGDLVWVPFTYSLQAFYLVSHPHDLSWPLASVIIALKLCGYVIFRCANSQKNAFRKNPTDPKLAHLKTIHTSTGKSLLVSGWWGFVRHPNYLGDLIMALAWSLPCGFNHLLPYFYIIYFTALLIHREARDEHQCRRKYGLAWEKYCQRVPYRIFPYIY
UniProt P20357: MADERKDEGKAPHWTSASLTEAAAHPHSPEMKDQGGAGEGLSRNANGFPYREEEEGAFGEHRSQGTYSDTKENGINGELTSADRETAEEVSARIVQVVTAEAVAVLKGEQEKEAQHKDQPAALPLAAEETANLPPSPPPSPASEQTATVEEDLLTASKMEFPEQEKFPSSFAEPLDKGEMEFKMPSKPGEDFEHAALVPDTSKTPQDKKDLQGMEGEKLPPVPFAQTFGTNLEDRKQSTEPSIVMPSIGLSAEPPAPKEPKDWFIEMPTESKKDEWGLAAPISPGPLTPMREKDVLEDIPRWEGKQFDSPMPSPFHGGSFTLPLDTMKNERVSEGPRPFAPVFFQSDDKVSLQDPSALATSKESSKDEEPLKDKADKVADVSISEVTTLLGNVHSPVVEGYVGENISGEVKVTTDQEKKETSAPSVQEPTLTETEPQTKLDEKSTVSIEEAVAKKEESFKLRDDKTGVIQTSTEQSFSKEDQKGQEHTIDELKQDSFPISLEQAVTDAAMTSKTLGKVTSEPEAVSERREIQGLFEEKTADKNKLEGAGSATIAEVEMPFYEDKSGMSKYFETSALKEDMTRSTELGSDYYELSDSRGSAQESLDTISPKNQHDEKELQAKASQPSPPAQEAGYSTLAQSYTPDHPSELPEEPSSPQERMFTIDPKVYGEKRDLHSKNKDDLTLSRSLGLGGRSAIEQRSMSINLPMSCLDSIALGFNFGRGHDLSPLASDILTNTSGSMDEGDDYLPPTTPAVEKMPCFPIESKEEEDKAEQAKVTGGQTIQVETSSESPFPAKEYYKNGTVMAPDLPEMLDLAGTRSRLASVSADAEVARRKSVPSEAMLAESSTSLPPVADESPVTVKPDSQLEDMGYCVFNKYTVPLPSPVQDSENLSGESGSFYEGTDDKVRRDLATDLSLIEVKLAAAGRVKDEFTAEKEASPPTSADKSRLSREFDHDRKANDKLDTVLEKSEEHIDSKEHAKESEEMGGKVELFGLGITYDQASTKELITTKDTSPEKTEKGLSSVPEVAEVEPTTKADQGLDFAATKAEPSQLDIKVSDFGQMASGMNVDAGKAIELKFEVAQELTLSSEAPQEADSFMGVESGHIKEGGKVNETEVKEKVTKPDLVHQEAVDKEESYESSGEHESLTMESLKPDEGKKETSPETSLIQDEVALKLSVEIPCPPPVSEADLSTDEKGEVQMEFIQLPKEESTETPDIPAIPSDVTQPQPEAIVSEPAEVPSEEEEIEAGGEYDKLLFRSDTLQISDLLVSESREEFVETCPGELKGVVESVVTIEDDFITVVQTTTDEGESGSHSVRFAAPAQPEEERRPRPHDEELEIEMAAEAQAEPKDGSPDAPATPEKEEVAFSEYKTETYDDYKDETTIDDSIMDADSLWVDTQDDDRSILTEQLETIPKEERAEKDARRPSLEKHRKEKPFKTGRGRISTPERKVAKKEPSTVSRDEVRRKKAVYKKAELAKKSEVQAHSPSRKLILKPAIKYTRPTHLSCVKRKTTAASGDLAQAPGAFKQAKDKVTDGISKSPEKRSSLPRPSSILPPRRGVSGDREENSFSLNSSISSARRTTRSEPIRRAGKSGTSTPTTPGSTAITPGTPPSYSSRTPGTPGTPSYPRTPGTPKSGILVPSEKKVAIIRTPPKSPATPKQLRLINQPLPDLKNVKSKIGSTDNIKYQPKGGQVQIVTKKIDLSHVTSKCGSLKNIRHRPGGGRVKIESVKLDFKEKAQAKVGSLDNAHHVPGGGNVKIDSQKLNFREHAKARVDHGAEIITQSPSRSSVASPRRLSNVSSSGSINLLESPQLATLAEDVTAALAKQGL

Key:
[1] = molecular target: HP1ψ (HP1γ), endogenous in mouse hippocampal neurons (mouse (endogenous in primary hippocampal neurons)) (UniProt P23198); assay: proximity ligation
[2] = molecular target: LBR, endogenous in mouse hippocampal neurons (mouse (endogenous in primary hippocampal neurons)) (UniProt Q3U9G9); assay: proximity ligation

binding [1]: no binding | binding [2]: no binding
Substance: MAP2, endogenous in mouse hippocampal neurons (from UniProt P20357 1-1828)
